PubChem BioAssay AID504786 | Drosophila RNAi Screening Center | 2011
Test: 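Positive regulators of HIF-driven reporter output in Drosophila cells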 (primary screen). Cells: Drosophila S2 cells with a stable HIF luciferase reporter. Reagent: long dsRNA against Drosophila genes, about 0.2 µg dsRNA per well of a 384-well plate. Time to read-out: three days of knock-down, then 20 h of DFO before reading. Treatment: desferrioxamine (DFO) at 100 µM, an iron chelator that mimics hypoxia, for 20 h. Measured: 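HIF reporter luminescence in cells given 100 µM DFO for 20 h, using the mouse ldh-a hypoxia-response element, scored as per-plate z-scores; higher means greater loss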. Direction: z-score: higher = stronger loss of HIF reporter signal.
In all, the deposit lists about 21,000 reagents; below is a random part of those that have a named target and a result. 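Primary screen; positive scores mean lost reporter signal, so the sign may be inverted from the usual convention.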 The numbers tell different reagents against one gene apart. Not all columns of the deposit are shown.

With knock-down of SecS (Sec synthetase), the screen gave z-score, replicate 1 = -0.3.
CG15742 scored z-score, replicate 1 = -0.4.
After knock-down of TotM (Turandot M), the screen gave z-score, replicate 1 = -0.2.
Against EDTP (Egg-derived tyrosine phosphatase), the values are z-score, replicate 1 = -0.4.
swi2 gave z-score, replicate 1 = -0.1.
Against Diap2 (Death-associated inhibitor of apoptosis 2), the entry reads z-score, replicate 1 = -0.2.
Against Rab5, the entry reads z-score, replicate 1 = -0.3.
CG31636 scored z-score, replicate 1 = -0.2.
For CG31446, the values are z-score, replicate 1 = -0.2.
Against cv (crossveinless) the deposit lists z-score, replicate 1 = -0.2.
Knock-down of CG13843 came out at: z-score, replicate 1 = -0.1.
Ublcp1 showed z-score, replicate 1 = -0.1.
CG16986 scored z-score, replicate 1 = -0.3.
Knock-down of prom (prominin) came out at: z-score, replicate 1 = -0.1.
For gb (genderblind), the entry reads z-score, replicate 1 = -0.2.
For CG6701, the values are z-score, replicate 1 = -0.3.
Ca-alpha1T (Ca[2+]-channel protein alpha[[1]] subunit T) #1 showed z-score, replicate 1 = -0.1.
Ca-alpha1T (Ca[2+]-channel protein alpha[[1]] subunit T) #2 gave z-score, replicate 1 = -0.3.
Silencing of Ca-alpha1T (Ca[2+]-channel protein alpha[[1]] subunit T) #3 gave: z-score, replicate 1 = -0.2.
Against Ca-alpha1T (Ca[2+]-channel protein alpha[[1]] subunit T) #4, the values are z-score, replicate 1 = -0.3.
Depletion of Roc1a (Regulator of cullins 1a) resulted in: z-score, replicate 1 = 0.8.
After knock-down of HP1D3csd (Heterochromatin Protein 1D3 chromoshadow domain), the record shows z-score, replicate 1 = -0.3.
Silencing of Grl62a (Gustatory receptor-like 62a) gave: z-score, replicate 1 = -0.3.
With knock-down of CG12692, the record shows z-score, replicate 1 = -0.3.
Silencing of Frq2 (Frequenin 2) resulted in: z-score, replicate 1 = -0.3.
ninaD (neither inactivation nor afterpotential D) gave z-score, replicate 1 = -0.2.
Depletion of CG3168 gave: z-score, replicate 1 = -0.1.
CG13039 scored z-score, replicate 1 = -0.3.
Silencing of CG14511 resulted in: z-score, replicate 1 = 0.2.
With knock-down of CG7488 the results were z-score, replicate 1 = 0.1.
Silencing of CG1738 gave: z-score, replicate 1 = -0.1.
With knock-down of CG2209, the screen gave z-score, replicate 1 = -0.1.
SerRS-m (Seryl-tRNA synthetase, mitochondrial) gave z-score, replicate 1 = 0.1.
Knock-down of aust (australin) came out at: z-score, replicate 1 = -0.3.
Against Nup133 (Nucleoporin 133kD) the deposit lists z-score, replicate 1 = 0.
For CG32369 #1 the deposit lists z-score, replicate 1 = -0.4.
CG32369 #2 scored z-score, replicate 1 = -0.4.
Against AspRS-m (Aspartyl-tRNA synthetase, mitochondrial), the values are z-score, replicate 1 = 0.8.
With knock-down of PolD2 (DNA polymerase delta subunit 2), the screen gave z-score, replicate 1 = -0.3.
With knock-down of Dhps (Deoxyhypusine synthase), the screen gave z-score, replicate 1 = -0.4.

Single entries from the list:
For “z-score, replicate 1”, Diap2 (Death-associated inhibitor of apoptosis 2) is entered as -0.2
Value for Ca-alpha1T (Ca[2+]-channel protein alpha[[1]] subunit T) #4 in “z-score, replicate 1”: -0.3
Entry for CG6701 under “z-score, replicate 1”: -0.3
For “z-score, replicate 1”, Roc1a (Regulator of cullins 1a) has 0.8
Frq2 (Frequenin 2), z-score, replicate 1 = -0.3
